PubChem BioAssay AID1159584 | Peter MacCallum Cancer Centre, 2016

- Aim: 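Genes whose loss is lethal only together with E-cadherin loss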 (primary screen)
- Cells: human MCF10A breast epithelial cells, parental and CDH1-null
- Reagents: siRNA against human genes
- Measured: 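ATP luminescence (CellTiter-Glo) viability per line relative to mean mock wells over all plates, and the ratio of CDH1-null to parental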
- Direction: CDH1-null / parental viability ratio: higher = CDH1-null cells survive relatively better than parental
The whole screen tested about 18,000 reagents; shown is a part drawn at random. Not all columns of the deposit are shown. Not stated in the record: the amount of reagent, the time to read-out.

target gene	CDH1-null / parental viability ratio
PANK2	1.01
NXF5	0.81
UBOX5	0.96
AJM1	1.18
WFIKKN1	0.89
CDC123	1.05
ADGRG5	0.67
LYZL1	1.07
CHCHD1	1.2
MACIR	0.84
TRIM55	0.93
KLHL15	1.26
PLEKHA6	1.06
CHLSN	1.04
TSPAN3	0.82
KIR3DL1	1.24
CNR1	0.93
IL31	1.08
ITGA8	0.96
LAMTOR4	1.25
MRPL1	0.93
CTDSP1	1.48
OTOP1	1.07
NFKB1	0.87
B3GALT6	0.87
CNBP	0.95
ATXN7L1	1.05
ACAP1	1.18
PZP	0.98
GFM2	0.85
MGME1	0.89
TAFA5	1.15
PCSK5	1.3
MIGA1	0.73
IL17A	1.35
XCR1	0.81
CCT7	1
FKBP11	1.38
BPIFB4	1.17
RAMAC	1
BAGE	0.96
CT83	0.63
MICALL2	0.94
DIXDC1	1.1
SACK1A	0.85
KRT26	0.85
ASF1B	1.05
ERLEC1	1
KRI1	1.27
PIEZO1	0.75
C2orf15	0.97
ETV1	1.12
LYN	0.93
ETV2	1.09
CLN3	1.1
ANKRD28	1.04
BIRC7	1.02
COL11A2	1.03
PRDM7	1.19
LRP5	1.06
CZIB	0.86
CSNK1G2-AS1	0.94
NMT2	0.9
AMER1	0.98
NECAB2	1.23
LINC01973	1.57
CALB2	1.03
ODR4	0.79
